# According to PubChem BioAssay AID2685 (National Center for Advancing Translational Sciences (NCATS), 2010):
# This is one part of the list. These are further read-outs of the screen, such as a control signal, another cell line or another target. No call is given for them. Compounds called inactive in the main read-out are mostly missing here. Potencies come from curve fits of mixed quality, noted in brackets.
# Experiment: qHTS Assay for Lipid Storage Modulators in Drosophila S3 Cells;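 on cell number change: cells counted by Cell Tracker Red CMTPX staining in the red channel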
# Settings: BODIPY lipid droplet fluorescence, 18-24 h; for cell number change: measured here: cell count max response, cells fed with added oleic acid
# How it was run: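 Drosophila S3 cells got compounds at several concentrations plus oleic acid (400 uM solution). Laser-scanning cytometry with 488 nm excitation read lipid droplets at 500-530 nm and cells at 575-640 nm. Percent activity was relative to 20 uM Triacsin C.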
# [1] = measured here: lipid fluorescence (Fed channel) AC50, cells fed with added oleic acid
# [2] = measured here: cell number channel AC50, cells fed with added oleic acid
SMILES,cell number change [%],AC50 [1],AC50 [2]
COc1cccc(NC(=O)Nc2nnc(-c3ccccc3SCc3ccccc3)s2)c1,-20.2,"6.51 µM [rising, partial curve]",–
c1cc2[nH]snc2c2nc(C3CC3)nc12,60.7,"5.17 µM [rising, single point]","5.17 µM [rising, full curve]"
Cc1cc(C)n(CCCN2CCC(C(=O)Nc3cccc(-c4cccc(F)c4)c3)CC2)n1,-8.22,–,–
C=CCC1(N(C(C)=O)c2ccccc2)CCCCC1,-15,"0.092 µM [falling, full curve, poor fit]",–
CC(NS(=O)(=O)c1ccc(Br)cc1)C(N)=O (stereo not drawn),-226,"20.6 µM [falling, partial curve]","25.9 µM [falling, partial curve]"
CSc1nnc2c(n1)OC1(Nc3ccccc3-2)C(=O)Nc2ccccc21 (stereo not drawn),23,–,–
CCCCC[n+]1ccn(-c2nc3ccccc3nc2[N-]S(=O)(=O)c2ccc(C)cc2)c1,-12.3,"6.51 µM [falling, single point]",–
COC(CNC(=O)c1cn(C)c2ccc(S(=O)(=O)N(C)C3CCCCC3)cc2c1=O)OC,-4.03,"0.326 µM [rising, single point]",–
CC(=O)Nc1ccc(CN2CCCC(CO)(Cc3cccc(Cl)c3)C2)cc1 (stereo not drawn),39.8,–,"0.00517 µM [rising, full curve, poor fit]"
COc1ccc(C[C@H]2CN3C(=NC[C@@H]3C(C)C)N2C[C@H](C)NC(=O)c2ccc(C)c(Br)c2)cc1,-20.9,"4.11 µM [falling, full curve]",–
O=C(O)c1ccccc1S(=O)CCO (stereo not drawn),11.8,–,–
CN1CCN(c2ccccc2NC(=O)c2ccc(-c3ccccc3)cc2)CC1,–,"2.91 µM [rising, partial curve]","2.59 µM [rising, single point]"
N#CC(C(N)=O)=C1CCCCC1,19.8,"6.51 µM [rising, full curve]",–
COc1cccc(N2C(=O)C3ON(c4ccccc4)C(c4cccs4)C3C2=O)c1 (stereo not drawn),–,"0.231 µM [falling, partial curve]",–
Cc1onc(-c2ccccc2Cl)c1C(=O)NC(=S)Nc1ccc(C(C)C)cc1,11.1,–,–
O=C(Nc1cc(Br)ccc1O)c1cc(-c2ccccc2)on1,8.77,–,–
CCOc1cccc(NC(=O)c2ccc(S(=O)(=O)N3CCCC3)cc2)c1,-34.8,–,"29.1 µM [falling, single point]"
CCN(CC)S(=O)(=O)c1ccc(OC)c(NC(=O)c2ccc(-n3cncn3)c([N+](=O)[O-])c2)c1,41.8,–,"4.11 µM [rising, full curve]"
COc1cccc(C(=O)NCCSc2c(C)[nH]c3ccccc23)c1OC,-39.4,"20.6 µM [falling, single point]",–
Cc1cccc(NC(=O)c2cc([N+](=O)[O-])ccc2NCC2CCCO2)n1 (stereo not drawn),33.1,–,"7.31 µM [rising, partial curve, poor fit]"

# Complete entries from above:
# `O=C(O)c1ccccc1S(=O)CCO` (stereo not drawn) as listed: cell number change [%]: 11.8
# `CSc1nnc2c(n1)OC1(Nc3ccccc3-2)C(=O)Nc2ccccc21` (stereo not drawn) as listed: cell number change [%]: 23
# `COc1cccc(C(=O)NCCSc2c(C)[nH]c3ccccc23)c1OC` as listed: cell number change [%]: -39.4; AC50 [1]: 20.6 µM [falling, single point]
# `COc1cccc(N2C(=O)C3ON(c4ccccc4)C(c4cccs4)C3C2=O)c1` (stereo not drawn) as listed: AC50 [1]: 0.231 µM [falling, partial curve]

# Later entries

SMILES,cell number change [%],AC50 [1],AC50 [2]
COc1ccc(C(=O)Nc2c(C)cc(C)cc2C)cc1OC,17.5,–,–
CC(C)Oc1ccc(S(=O)(=O)N2CCOCC2)cc1NC(=O)CC1CCCC1,-9.33,"0.092 µM [rising, full curve, poor fit]",–
CCN1CCCC1CNC(=O)c1[nH]c2ccc(OC)cc2c1C (stereo not drawn),10.8,"29.1 µM [rising, single point]",–
O=C(O)c1cccc(S(=O)(=O)Nc2ccccc2-c2ccccc2)c1,-42.4,"4.11 µM [falling, single point]","6.51 µM [falling, single point]"
CCOC(=O)C(Nc1ccc2ccccc2c1)C(=O)OCC,-65.5,"25.9 µM [falling, partial curve]","29.1 µM [falling, single point]"
O=C(NCc1nc2ccccc2[nH]1)c1ccc(S(=O)(=O)N2CCOCC2)cc1,4.61,–,–
Cc1nc(-c2ccc(F)cc2)c(CC(=O)N(C)CC(=O)Nc2ccccc2C(F)(F)F)s1,–,"7.31 µM [rising, partial curve, poor fit]","0.92 µM [rising, full curve, poor fit]"
Cc1cc(NC(=O)COC(=O)c2c(C)noc2C)ccc1Br,–,"6.51 µM [rising, single point]","6.51 µM [rising, single point]"
CC(=O)NC(=S)Nc1ccc(NC(=S)NC(=O)c2ccc([N+](=O)[O-])cc2)cc1,30.3,–,"2.91 µM [rising, partial curve]"
COc1cccc(-n2c(Cc3cc(=O)[nH]c(=O)[nH]3)nnc2SCC(=O)N2CCCCCC2)c1,25.1,"6.51 µM [rising, single point]",–
COc1ccc(CCNC(=O)Cc2nn(C)c(=O)c3ccccc23)cc1OC,–,"6.51 µM [rising, single point]",–
COc1ccc(C(=O)NCCS(=O)(=O)NCc2cccs2)cc1,2.89,"0.00461 µM [falling, full curve, poor fit]",–
CCC(C)(C)n1nnnc1C(c1ccccc1OC)N1CCN(C(=O)c2ccco2)CC1 (stereo not drawn),23.4,–,–
COC(=O)c1ccc(SCC(=O)N2CCC(C)CC2)c([N+](=O)[O-])c1,3.77,"14.6 µM [rising, single point]",–
CCOc1cccc(-c2c(C(=O)N/N=C/c3sccc3C)nnn2-c2nonc2N)c1,-12.4,–,"3.66 µM [falling, single point]"
CN1CCN(CC(O)COC(c2ccccc2)c2ccccc2)CC1 (stereo not drawn),-19,"6.51 µM [rising, partial curve, poor fit]",–
Cc1cc(C)nc(-n2nc(C)cc2NC(=O)CNC2CCCCC2)n1,2.89,"20.6 µM [rising, single point]",–
O=C(CSc1nnnn1-c1ccccc1)Nc1ccc(Cl)cc1,-8.86,"1.3 µM [rising, partial curve]",–
COc1ccc(OC)c(NC(=O)c2ccc(CN3CCOCC3)cc2)c1,-3.78,"0.082 µM [falling, single point]",–
CC(C)C(c1nnnn1C1CCCCC1)N1CCCc2ccccc21 (stereo not drawn),-33,"23.1 µM [falling, single point]","32.6 µM [falling, single point]"

SMILES,cell number change [%],AC50 [1],AC50 [2]
Cc1ccccc1OCCCCc1c(C)n[nH]c1C,-45,"10.3 µM [falling, partial curve, poor fit]","11.6 µM [falling, partial curve]"
O=C(NN1C(=O)NC2(CCCCC2)C1=O)c1ccc(Cl)c(Cl)c1,-15.1,"0.00411 µM [falling, full curve, poor fit]",–
CCOc1ccc2nc(SCC(=O)NCc3ccccc3)[nH]c2c1,-28.1,"16.4 µM [falling, partial curve]",–
CN(CCOc1ccccc1)C(=S)Nc1ccc(OC(F)F)cc1,8.57,"6.51 µM [falling, single point]","0.651 µM [rising, partial curve, poor fit]"
Cc1ccnc(NC(=O)c2cc3c(=O)oc4ccc(C)cc4c3s2)c1,22.4,–,–
COc1cccc(N2CCN(S(=O)(=O)c3cccc4cccnc34)CC2)c1,-14.4,"0.103 µM [falling, full curve, poor fit]",–
COc1ccc(S(=O)(=O)N2CCCCC2)cc1NC(=O)Cc1sc(C)nc1-c1ccc(F)cc1,75,–,"4.11 µM [rising, single point]"
CC(C)NC(=O)c1cccc(Cn2cc(Cl)cn2)c1,10.1,"2.06 µM [falling, single point]",–
Cc1cccc(N=C(N2CCOCC2)P(=O)(N2CCOCC2)N2CCOCC2)c1,-106,"18.4 µM [falling, partial curve]","25.9 µM [falling, partial curve]"
CN(C)c1ccc(C2C=C(c3ccc(Cl)cc3OC(F)F)Nc3ncnn32)cc1 (stereo not drawn),–,"0.517 µM [rising, partial curve]","0.731 µM [rising, partial curve]"
Cc1ccc(N(C)C(=O)c2cc(S(=O)(=O)N3CCc4ccccc43)cn2C)cc1,1.15,"0.651 µM [falling, single point]",–
O=C(NCc1n[nH]c(=S)n1Cc1ccccc1)c1ccccc1,56.3,–,"20.6 µM [rising, single point]"
Cc1ccnc(NC(NC(=O)C(C)C)(C(F)(F)F)C(F)(F)F)c1,-9.07,"0.116 µM [rising, full curve, poor fit]",–
CC1CCN(S(=O)(=O)N2CCCC(C(=O)NCc3ccc(F)cc3)C2)CC1 (stereo not drawn),-6.6,–,–
CN(C)S(=O)(=O)c1cccc(NC(=O)COC(=O)COc2ccccc2[N+](=O)[O-])c1,10.7,–,–
O=C1NC2=C(C(=O)CCC2)C(c2ccc([N+](=O)[O-])cc2)N1 (stereo not drawn),20.6,"7.31 µM [rising, partial curve]",–
CCOP(=O)(OCC)C(Nc1cccc([N+](=O)[O-])c1)c1ccccc1 (stereo not drawn),–,"0.00461 µM [rising, full curve, poor fit]",–
CC(=O)c1ccc(S(=O)(=O)NCC(=O)Nc2nc3ccccc3[nH]2)cc1,-14.6,"25.9 µM [rising, single point]",–
CCC(C)Sc1ccc(-c2nc3ccc(C)cn3c2NCc2ccccc2)cc1OC (stereo not drawn),-54.7,–,"29.1 µM [falling, single point]"
CCCSc1ccc([C@@H]2[C@H]3C(=O)N(CC)C(=O)[C@H]3[C@]3(C(=O)OC)CCCCN23)cc1,-16.3,–,–
